Results from the supplement of paper PMC11006884.
This list holds what a sample rich in targets with a hit left over. Single values of this set are uncertain. The list shows a part of the results, in another mix than the full data.

Sequences of proteins named here, by UniProt entry; tags and fusion partners are left off. A change or cut given only in a name is not applied to a line headed by its entry.
UniProt Q9UKV3: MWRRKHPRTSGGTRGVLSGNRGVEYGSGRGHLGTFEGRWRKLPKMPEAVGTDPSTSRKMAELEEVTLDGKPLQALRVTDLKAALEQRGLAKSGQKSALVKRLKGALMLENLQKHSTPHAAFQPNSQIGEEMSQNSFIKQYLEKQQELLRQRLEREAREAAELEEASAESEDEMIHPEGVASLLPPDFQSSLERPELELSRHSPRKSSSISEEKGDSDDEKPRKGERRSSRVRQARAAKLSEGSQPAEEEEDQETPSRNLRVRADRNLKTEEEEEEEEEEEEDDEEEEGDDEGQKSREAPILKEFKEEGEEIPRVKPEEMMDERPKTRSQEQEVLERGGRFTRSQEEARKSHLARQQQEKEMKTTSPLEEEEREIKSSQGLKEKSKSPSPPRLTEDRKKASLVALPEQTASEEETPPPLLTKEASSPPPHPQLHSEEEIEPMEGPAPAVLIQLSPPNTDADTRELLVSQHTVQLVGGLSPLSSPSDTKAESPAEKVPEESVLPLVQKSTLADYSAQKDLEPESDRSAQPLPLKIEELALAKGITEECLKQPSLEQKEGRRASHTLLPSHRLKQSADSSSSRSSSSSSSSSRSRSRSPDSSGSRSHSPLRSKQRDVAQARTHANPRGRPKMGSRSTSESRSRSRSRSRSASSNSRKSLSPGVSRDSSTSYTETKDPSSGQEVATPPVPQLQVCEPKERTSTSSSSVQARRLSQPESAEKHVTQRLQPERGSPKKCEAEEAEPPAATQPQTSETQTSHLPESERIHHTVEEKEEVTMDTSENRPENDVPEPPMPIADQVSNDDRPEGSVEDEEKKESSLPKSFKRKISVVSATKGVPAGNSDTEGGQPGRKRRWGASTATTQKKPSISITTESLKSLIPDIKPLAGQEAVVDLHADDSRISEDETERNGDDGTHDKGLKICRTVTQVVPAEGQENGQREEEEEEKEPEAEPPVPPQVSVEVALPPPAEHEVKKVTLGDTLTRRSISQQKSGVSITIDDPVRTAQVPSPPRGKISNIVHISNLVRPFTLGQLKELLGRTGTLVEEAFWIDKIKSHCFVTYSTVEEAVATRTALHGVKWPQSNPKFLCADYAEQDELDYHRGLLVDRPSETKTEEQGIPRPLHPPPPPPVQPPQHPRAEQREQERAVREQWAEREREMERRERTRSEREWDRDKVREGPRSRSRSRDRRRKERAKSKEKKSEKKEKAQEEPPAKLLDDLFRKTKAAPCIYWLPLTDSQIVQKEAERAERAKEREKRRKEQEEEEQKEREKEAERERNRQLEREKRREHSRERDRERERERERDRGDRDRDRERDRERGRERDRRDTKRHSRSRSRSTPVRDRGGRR
UniProt Q9ULT8: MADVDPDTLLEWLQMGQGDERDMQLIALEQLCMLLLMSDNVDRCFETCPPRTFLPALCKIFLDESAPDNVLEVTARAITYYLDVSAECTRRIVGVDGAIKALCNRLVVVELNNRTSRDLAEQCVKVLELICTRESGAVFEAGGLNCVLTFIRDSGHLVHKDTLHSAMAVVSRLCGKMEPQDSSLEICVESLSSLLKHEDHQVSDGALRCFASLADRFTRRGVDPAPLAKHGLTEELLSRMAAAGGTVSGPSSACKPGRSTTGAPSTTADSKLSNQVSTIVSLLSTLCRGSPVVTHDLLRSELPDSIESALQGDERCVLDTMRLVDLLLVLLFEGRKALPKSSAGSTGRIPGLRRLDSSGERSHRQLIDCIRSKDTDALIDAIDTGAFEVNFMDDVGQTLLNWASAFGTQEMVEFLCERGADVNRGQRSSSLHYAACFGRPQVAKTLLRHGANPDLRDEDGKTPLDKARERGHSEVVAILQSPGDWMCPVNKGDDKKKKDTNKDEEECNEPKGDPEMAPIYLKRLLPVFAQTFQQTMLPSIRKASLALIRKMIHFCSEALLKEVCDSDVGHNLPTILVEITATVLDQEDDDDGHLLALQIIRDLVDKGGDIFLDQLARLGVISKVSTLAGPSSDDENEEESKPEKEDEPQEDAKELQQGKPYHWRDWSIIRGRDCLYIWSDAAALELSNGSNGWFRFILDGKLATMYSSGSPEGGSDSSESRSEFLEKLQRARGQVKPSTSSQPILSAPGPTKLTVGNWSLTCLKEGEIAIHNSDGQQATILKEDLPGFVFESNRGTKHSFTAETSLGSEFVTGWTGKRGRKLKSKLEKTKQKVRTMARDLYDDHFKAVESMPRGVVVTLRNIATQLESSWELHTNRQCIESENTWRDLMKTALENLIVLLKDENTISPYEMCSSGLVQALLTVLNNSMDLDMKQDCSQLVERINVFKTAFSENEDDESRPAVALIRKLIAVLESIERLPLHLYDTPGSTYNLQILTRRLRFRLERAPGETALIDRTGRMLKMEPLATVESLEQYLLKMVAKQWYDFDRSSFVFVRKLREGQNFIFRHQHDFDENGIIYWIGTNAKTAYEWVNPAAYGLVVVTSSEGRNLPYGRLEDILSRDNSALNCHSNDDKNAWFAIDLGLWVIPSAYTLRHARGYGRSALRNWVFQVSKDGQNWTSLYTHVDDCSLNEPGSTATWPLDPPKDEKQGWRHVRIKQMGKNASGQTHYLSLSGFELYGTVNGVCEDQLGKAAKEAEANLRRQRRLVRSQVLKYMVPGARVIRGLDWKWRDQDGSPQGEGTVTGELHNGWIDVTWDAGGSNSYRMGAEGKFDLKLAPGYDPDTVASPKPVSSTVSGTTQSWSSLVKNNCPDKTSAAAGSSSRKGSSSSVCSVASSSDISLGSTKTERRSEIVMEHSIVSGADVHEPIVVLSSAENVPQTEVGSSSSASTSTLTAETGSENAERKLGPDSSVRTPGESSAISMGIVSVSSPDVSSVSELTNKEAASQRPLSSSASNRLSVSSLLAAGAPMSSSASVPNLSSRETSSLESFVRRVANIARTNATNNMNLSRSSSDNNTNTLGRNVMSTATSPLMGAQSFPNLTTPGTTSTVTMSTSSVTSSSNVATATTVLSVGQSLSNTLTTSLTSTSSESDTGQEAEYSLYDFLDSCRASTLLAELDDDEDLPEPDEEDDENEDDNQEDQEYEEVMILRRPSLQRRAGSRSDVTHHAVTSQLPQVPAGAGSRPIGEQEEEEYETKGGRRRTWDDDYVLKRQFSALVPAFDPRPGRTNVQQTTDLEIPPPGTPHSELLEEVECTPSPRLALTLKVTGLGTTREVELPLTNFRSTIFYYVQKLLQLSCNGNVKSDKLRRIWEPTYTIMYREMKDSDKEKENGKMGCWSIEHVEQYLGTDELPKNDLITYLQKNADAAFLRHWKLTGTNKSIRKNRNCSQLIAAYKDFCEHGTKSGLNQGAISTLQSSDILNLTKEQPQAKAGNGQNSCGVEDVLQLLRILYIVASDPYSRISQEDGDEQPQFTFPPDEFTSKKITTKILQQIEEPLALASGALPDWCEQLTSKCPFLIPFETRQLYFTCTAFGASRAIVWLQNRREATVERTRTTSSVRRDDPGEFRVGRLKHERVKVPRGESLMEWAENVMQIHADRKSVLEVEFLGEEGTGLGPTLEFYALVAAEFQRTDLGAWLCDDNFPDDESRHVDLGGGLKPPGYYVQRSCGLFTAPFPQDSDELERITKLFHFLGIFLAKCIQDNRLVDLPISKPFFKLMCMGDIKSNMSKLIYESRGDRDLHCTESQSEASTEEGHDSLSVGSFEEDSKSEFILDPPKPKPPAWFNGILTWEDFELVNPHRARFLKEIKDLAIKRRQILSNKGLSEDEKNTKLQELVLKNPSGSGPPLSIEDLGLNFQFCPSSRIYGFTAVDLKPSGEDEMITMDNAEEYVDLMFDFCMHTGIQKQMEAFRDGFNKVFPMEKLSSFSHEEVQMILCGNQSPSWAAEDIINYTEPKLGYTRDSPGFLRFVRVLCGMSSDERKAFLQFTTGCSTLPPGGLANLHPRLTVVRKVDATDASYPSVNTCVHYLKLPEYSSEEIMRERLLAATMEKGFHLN
UniProt Q9UPN7: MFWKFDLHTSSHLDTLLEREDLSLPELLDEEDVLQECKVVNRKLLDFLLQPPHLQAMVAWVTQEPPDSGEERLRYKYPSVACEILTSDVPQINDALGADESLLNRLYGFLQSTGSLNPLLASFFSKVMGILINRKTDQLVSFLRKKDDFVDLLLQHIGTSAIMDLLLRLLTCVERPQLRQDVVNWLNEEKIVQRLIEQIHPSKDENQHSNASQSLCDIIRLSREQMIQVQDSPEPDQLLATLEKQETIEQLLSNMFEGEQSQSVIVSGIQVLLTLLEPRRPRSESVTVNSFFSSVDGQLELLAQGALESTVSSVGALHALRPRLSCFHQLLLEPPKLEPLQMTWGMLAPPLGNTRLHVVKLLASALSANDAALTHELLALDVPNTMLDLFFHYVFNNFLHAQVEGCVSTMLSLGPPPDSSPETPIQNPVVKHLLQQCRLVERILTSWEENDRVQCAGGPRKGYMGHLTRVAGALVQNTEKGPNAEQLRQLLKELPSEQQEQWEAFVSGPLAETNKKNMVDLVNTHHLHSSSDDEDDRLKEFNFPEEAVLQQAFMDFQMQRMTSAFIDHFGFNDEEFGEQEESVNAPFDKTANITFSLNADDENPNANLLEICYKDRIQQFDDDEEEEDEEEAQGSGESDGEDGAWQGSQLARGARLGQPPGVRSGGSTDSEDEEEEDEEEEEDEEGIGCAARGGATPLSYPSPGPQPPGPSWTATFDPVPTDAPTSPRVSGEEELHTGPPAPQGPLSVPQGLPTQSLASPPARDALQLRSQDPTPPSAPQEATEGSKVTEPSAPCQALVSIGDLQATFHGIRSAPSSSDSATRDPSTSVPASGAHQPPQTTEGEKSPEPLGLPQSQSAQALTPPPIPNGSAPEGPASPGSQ
UniProt Q9Y262, whole entry: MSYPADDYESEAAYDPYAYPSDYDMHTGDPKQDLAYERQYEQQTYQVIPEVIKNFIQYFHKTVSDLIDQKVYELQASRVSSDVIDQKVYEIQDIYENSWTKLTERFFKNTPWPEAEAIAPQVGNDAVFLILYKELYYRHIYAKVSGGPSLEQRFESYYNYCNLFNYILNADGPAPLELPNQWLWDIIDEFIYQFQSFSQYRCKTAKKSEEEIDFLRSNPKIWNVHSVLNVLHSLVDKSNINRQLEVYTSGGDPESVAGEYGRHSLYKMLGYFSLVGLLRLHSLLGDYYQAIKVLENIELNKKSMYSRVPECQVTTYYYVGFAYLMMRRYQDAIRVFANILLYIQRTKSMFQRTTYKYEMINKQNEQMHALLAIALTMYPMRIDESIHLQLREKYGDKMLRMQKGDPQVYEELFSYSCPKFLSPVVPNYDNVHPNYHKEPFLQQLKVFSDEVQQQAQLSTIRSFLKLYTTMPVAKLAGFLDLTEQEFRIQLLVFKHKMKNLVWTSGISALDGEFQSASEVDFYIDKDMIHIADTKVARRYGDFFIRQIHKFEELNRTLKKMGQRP
UniProt Q9UKN8: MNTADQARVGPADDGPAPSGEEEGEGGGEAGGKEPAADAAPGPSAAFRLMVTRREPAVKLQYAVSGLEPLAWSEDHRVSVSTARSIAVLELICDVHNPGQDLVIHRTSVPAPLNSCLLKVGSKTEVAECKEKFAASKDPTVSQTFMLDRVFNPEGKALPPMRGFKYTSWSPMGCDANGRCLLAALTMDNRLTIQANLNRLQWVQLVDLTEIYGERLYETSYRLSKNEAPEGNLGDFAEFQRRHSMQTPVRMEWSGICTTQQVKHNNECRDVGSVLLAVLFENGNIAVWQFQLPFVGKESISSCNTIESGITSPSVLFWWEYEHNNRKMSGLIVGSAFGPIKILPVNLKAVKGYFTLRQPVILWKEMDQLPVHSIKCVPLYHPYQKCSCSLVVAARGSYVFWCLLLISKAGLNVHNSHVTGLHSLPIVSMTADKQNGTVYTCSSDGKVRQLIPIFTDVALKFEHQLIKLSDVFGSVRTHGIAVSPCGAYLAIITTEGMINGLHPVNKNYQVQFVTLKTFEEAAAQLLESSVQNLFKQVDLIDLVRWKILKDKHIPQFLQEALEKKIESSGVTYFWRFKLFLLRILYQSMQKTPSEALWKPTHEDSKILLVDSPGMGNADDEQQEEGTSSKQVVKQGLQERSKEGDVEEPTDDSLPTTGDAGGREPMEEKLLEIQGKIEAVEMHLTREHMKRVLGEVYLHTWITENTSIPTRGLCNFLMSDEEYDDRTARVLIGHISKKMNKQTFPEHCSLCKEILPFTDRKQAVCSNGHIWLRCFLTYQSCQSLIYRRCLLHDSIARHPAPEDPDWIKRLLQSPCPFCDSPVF
UniProt Q9Y3B4: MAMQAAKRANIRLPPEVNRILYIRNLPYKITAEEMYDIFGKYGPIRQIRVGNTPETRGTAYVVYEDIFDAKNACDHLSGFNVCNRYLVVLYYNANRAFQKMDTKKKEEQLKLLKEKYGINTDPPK
UniProt Q9UHQ4: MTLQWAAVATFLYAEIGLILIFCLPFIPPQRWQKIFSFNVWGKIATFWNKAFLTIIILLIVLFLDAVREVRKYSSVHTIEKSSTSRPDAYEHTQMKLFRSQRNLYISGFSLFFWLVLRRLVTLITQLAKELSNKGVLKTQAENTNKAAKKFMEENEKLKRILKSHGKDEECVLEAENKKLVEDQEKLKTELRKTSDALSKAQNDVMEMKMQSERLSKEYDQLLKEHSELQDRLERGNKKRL

compound: COC(=O)/C=C/c1ccccc1 [methyl cinnamate]; experiment: log2 ratio of iodoacetamide-alkyne labeling of the cysteine site, DMSO over compound (competition); higher = stronger covalent engagement of the cysteine by the compound, active = 1 or more; details: 500 µM; treatment time 1 h; system: HEK293T cell lysate
Procedure, shortened: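 HEK293T lysate (2 mg/mL) was incubated with electrophile (500 µM) or vehicle for 1 h at ambient temperature and then with iodoacetamide alkyne for 1 h. Labelled proteins were clicked to sCIP-TMT reagents, pooled, digested, enriched on streptavidin and measured by Orbitrap Eclipse LC-MS/MS with FAIMS, with FragPipe quantification. The per-cysteine log2 competition ratio is mean control-channel reporter intensity over mean compound-channel reporter intensity. Across three replicates with duplicate channels, cysteines quantified in only one replicate were excluded.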

log2 ratio of iodoacetamide-alkyne labeling, inactive:
LUC7L2 C43 (UniProt Q9Y383) 0.0239
CPSF3 C527 (UniProt Q9UKF6) -0.106
DCTN4 C30 (UniProt Q9UJW0) -0.227
MINPP1 C337 (UniProt Q9UNW1) 0.59
MACF1 C7245 (UniProt Q9UPN3) 0.141
NOP58 C439 (UniProt Q9Y2X3) 0.172
ACIN1 C1052 (UniProt Q9UKV3) 0.0664
HECTD1 C1893 (UniProt Q9ULT8) -0.0849
DBNL C97 (UniProt Q9UJU6) 0.24
UniProt Q9UPN7_C689 0.0483
EIF3L C417 (UniProt Q9Y262) 0.192
UniProt Q9UPN7_C795 -0.0542
GTF3C4 C817 (UniProt Q9UKN8) 0.0649
HECTD1 C2579 (UniProt Q9ULT8) 0.00497
GIT1 C576 (UniProt Q9Y2X7) 0.355
MED13 C402 (UniProt Q9UHV7) 0.216
LSM7 C85 (UniProt Q9UK45) 0.0792
ATP6V0A2 C165 (UniProt Q9Y487) 0.161
VPS28 C96 (UniProt Q9UK41) -0.0182
HECTD1 C254 (UniProt Q9ULT8) 0.29
MBD1 C57 (UniProt Q9UIS9) 0.582
SNX6 C348 (UniProt Q9UNH7) 0.185
SRRM2 C1016 (UniProt Q9UQ35) 0.705
TRIM33 C150 (UniProt Q9UPN9) 0.309
STUB1 C232 (UniProt Q9UNE7) -0.0183
ANAPC5 C86 (UniProt Q9UJX4) 0.147
UniProt Q9Y3L5_C140 0.138
UniProt Q9Y3B4_C83 0.0635
TRIM33 C153 (UniProt Q9UPN9) 0.276
STOML2 C167 (UniProt Q9UJZ1) -0.199
PSMD13 C357 (UniProt Q9UNM6) 0.14
DBNL C127 (UniProt Q9UJU6) 0.189
UniProt Q9UHD8_C531 0.11
VPS4A C359 (UniProt Q9UN37) 0.194
BCAP29 C171 (UniProt Q9UHQ4) 0.41
SAMHD1 C80 (UniProt Q9Y3Z3) 0.159
EPB41L3 C140 (UniProt Q9Y2J2) -0.168

Pulled one by one from the entries so far (two):
log2 ratio of iodoacetamide-alkyne labeling, inactive:
LUC7L2 C43 (UniProt Q9Y383) 0.0239
UniProt Q9UPN7_C689 0.0483
